# Assay results reported in patent publication US9481734B2, “Immunoglobulin cleavage fragments and disease indicators and compositions for detecting and binding such” (Janssen Biotech, Inc., priority 2007, dated 2016).
# B1: Plasmin: plasminogen co-incubated with plasminogen activators (protein, UniProt P00747 20-580; P00747 581-810, looked up)
# Plasmin heavy chain A: EPLDDYVNTQGASLFSVTKKQLGAGSIEECAAKCEEDEEFTCRAFQYHSKEQQCVIMAENRKSSIIIRMRDVVLFEKKVYLSECKTGNGKNYRGTMSKTKNGITCQKWSSTSPHRPRFSPATHPSEGLEENYCRNPDNDPQGPWCYTTDPEKRYDYCDILECEEECMHCSGENYDGKISKTMSGLECQAWDSQSPHAHGYIPSKFPNKNLKKNYCRNPDRELRPWCFTTDPNKRWELCDIPRCTTPPPSSGPTYQCLKGTGENYRGNVAVTVSGHTCQHWSAQTPHTHNRTPENFPCKNLDENYCRNPDGKRAPWCHTTNSQVRWEYCKIPSCDSSPVSTEQLAPTAPPELTPVVQDCYHGDGQSYRGTSSTTTTGKKCQSWSSMTPHRHQKTPENYPNAGLTMNYCRNPDADKGPWCFTTDPSVRWEYCNLKKCSGTEASVVAPPPVVLLPDVETPSEEDCMFGNGKGYRGKRATTVTGTPCQDWAAQEPHRHSIFTPETNPRAGLEKNYCRNPDGDVGGPWCYTTNPRKLYDYCDVPQCAAPSFDCGKPQVEPKKCPGR
# Plasmin light chain B: VVGGCVAHPHSWPWQVSLRTRFGMHFCGGTLISPEWVLTAAHCLEKSPRPSSYKVILGAHQEVNLEPHVQEIEVSRLFLEPTRKDIALLKLSSPAVITDKVIPACLPSPNYVVADRTECFITGWGETQGTFGAGLLKEAQLPVIENKVCNRYEFLNGRVQSTELCAGHLAGGTDSCQGDSGGPLVCFEKDKYILQGVTSWGLGCARPNKPGVYVRVSRFVTWIEGVMRNN
# modifications: plasmin
# B2: Macrophage metalloelastase (MMP-12): human metalloendopeptidase (protein, UniProt P39900 106-470, looked up)
# Macrophage metalloelastase: GPVWRKHYITYRINNYTPDMNREDVDYAIRKAFQVWSNVTPLKFSKINTGMADILVVFARGAHGDFHAFDGKGGILAHAFGPGSGIGGDAHFDEDEFWTTHSGGTNLFLTAVHEIGHSLGLGHSSDPKAVMFPTYKYVDINTFRLSADDIRGIQSLYGDPKENQRLPNPDNSEPALCDPNLSFDAVTTVGNKIFFFKDRFFWLKVSERPKTSVNLISSLWPTLPSGIEAAYEIEARNQVFLFKDDKYWLISNLRPEPNYPKSIHSFGFPNFVKKIDAAVFNPRFYRTYFFVDNQYWRYDERRQMMDPGYPKLITKNFQGIGPKIDAVFYSKNKYYYFFQGSNQFEYDFLLQRITKTLKSNSWFGC
# Test system: human IgG1
# Test: Proteinase digestion of purified IgG1, Agilent biosizing
# Format: biochemical
# Settings: human IgG1 heavy chain, EU numbering; 1% (w/w) enzyme, pH 7.5, 37° C.
# Protocol: A purified monoclonal antibody comprising a human IgG heavy chain was contacted with the proteases described and sampling was conducted over various durations of contact. Fragmentation in the samples was evaluated using the Agilent microfluidics “lab-on-a-chip” technology for in vitro biosizing (Goetz H et al. Biochemical and Biophysical Methods 60; 281-293, 2004).
# Proteinase digestions of purified IgGs were carried out at pH 7.5 in phosphate-buffered saline (PBS) or, for the metalloproteinases, in Tris-buffered saline buffer at 37° C. Calcium chloride was included in the metalloproteinase reactions at 1 mM for MMP-12 and 10 mM for MMP-3; otherwise no additives were used. Antibody concentrations were typically 1 or 2 mg/mL and reactions were initiated by addition of enzyme to a 1% (w/w) ratio to IgG. […]
# The major proteolytic cleavage positions in the IgG1 hinge were identified for enzyme-generated fragments by N-terminal sequencing of the purified Fc fragment (MMP-3 and MMP-12) and/or high resolution mass spectrometric analyses of the purified Fab (neutrophil elastase, plasmin) and F(ab′)2 (cathepsin G, glutamyl endopeptidase and IdeS) fragments. Fragmentation was evaluated using the Agilent microfluidics “lab-on-a-chip” technology.
row,Molecule,Cleaved Site
1,B1,Lys^223-
2,B2,Pro^232-
